Experimental data: PubChem BioAssay AID652272 (Drosophila RNAi Screening Center, 2013)
The screen tested about 21,000 reagents; shown is an unselected part of those with a known target gene and a result. In the full data, 503 (2.4%) are marked active. 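Raw plate light values, not normalised; calls rest on replicate z-scores that were not deposited; hits include reporter decreases as well as increases.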 Names joined by + are all predicted targets of the reagent. Reagent sequences are not shown. The record does not give: the amount of reagent, the time to read-out.

- Screen: 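Genes whose knock-down decreases or increases Hedgehog reporter output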 (primary screen)
- System: Drosophila clone 8 (Cl8) cells
- Reagents: long dsRNA against Drosophila genes
- Read-out: 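Firefly light from a Hedgehog-responsive ptc promoter reporter and Renilla reference light, both read on a plate reader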
- Scale: firefly Hh reporter signal: higher = more ptc reporter light; Renilla reference signal: higher = more Renilla control light
- Call rule: 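Called a hit if the two-replicate mean z-score lies below -2 or above +3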
- Calls: active = hit: reporter lowered or raised; inactive = not a hit

no.	gene	DRSC id	firefly Hh reporter signal, replicate 1	firefly Hh reporter signal, replicate 2	firefly Hh reporter signal, replicate 3	Renilla reference signal, replicate 1	Renilla reference signal, replicate 2	activity call
1	obst-B (obstructor-B)	DRSC01987	1.03e5	51628		4146	2396	inactive
2	CG6340	DRSC19987	72397	5.11e5	1.95e5	2020	3691	inactive
3	mEFTu1 (mitochondrial translation elongation factor Tu 1)	DRSC06959	1.60e5	98888		6074	4021	inactive
4	CG1324	DRSC20496	83312	1.05e5		2116	2016	inactive
5	qtc (quick-to-court)	DRSC02364	87489	63788		3810	3034	inactive
6	qtc (quick-to-court)	DRSC02365	97159	40876		2613	4226	inactive
7	RhoGDI	DRSC10919	1.14e5	87985		5098	3856	inactive
8	CG14515	DRSC14867	69418	1.06e5		1938	2642	inactive
9	Arp3 (Actin-related protein 3)	DRSC09669	1.60e5	83687		7408	3846	inactive
10	CG8032	DRSC16365	44988	93688		1797	2587	inactive
11	Atg8a (Autophagy-related 8a)	DRSC18024	1.00e5	3.13e5		2310	11100	inactive
12	CG10947	DRSC02111	76288	50204		3554	2418	inactive
13	MED7 (Mediator complex subunit 7)	DRSC16059	73430	1.46e5		2461	3213	inactive
14	Ccdc39 (Coiled-coil domain containing protein 39)	DRSC12286	85920	1.14e5		2001	2922	inactive
15	CG12689	DRSC17879	71193	2.07e5		2352	7158	inactive
16	Teh2 (tipE homolog 2)	DRSC08458	1.04e5	56888		2644	4547	inactive
17	Ifrd1 (Interferon-related developmental regulator 1)	DRSC00415	1.00e5	69560		1824	6630	inactive
18	Ifrd1 (Interferon-related developmental regulator 1)	DRSC00566	1.28e5	68439		1995	6896	inactive
19	RASSF8 (Ras association domain family member 8)	DRSC15707	98640	77600		2166	2121	inactive
20	CG8607	DRSC11012	54323	42941		6413	3392	inactive
21	CG42811	DRSC15367	5.91e5	99191		30458	3412	inactive
22	Cyp6a8 (Cytochrome P450 6a8)	DRSC07384	1.94e5	85686		7104	2263	inactive
23	CG34109	DRSC02169	1.07e5	57448		3129	5216	inactive
24	CG34109	DRSC02224	1.03e5	47200		2880	4610	inactive
25	CG34109	DRSC02225	1.00e5	43813		3252	5490	inactive
26	RpL37-2 (Ribosomal protein L37-2)	DRSC04584	1.05e5	62217		2978	5392	inactive
27	CG15406	DRSC00420	1.18e5	41105		3170	4946	inactive
28	CG7332	DRSC20038	1.13e5	99449		2598	2485	inactive
29	CG5697	DRSC15858	5.65e5	81376		26336	2640	inactive
30	Nup205 (Nucleoporin 205kD)	DRSC19432	76403	77354		2072	2032	inactive
31	Gs2 (Glutamine synthetase 2)	DRSC20250	81236	2.53e5		3133	10082	inactive
32	Zw (Zwischenferment)	DRSC20303	86603	93332		2201	2491	inactive
33	Trs31 (TRAPP subunit 31)	DRSC05975	1.04e5	97392		4582	3804	inactive
34	Hou (Houki)	DRSC20001	2.02e5	1.18e5		4528	2612	inactive
35	Ak3 (Adenylate kinase 3)	DRSC16075	58461	87138		1808	2336	inactive
36	brwl (brickwall)	DRSC01080	3.50e5	54642		16928	2484	inactive
37	brwl (brickwall)	DRSC02729	82583	57479		3677	2908	inactive
38	CG5131	DRSC02817	1.30e5	73843		3328	6626	inactive
39	Regnase-1 (Regnase 1)	DRSC14278	82330	65537		3739	2656	inactive
40	CG34244	DRSC09304	1.93e5			4955		inactive
41	CG42264	DRSC18074	53811	1.84e5		2307	6673	inactive
42	CG42264	DRSC18075	69904	1.80e5		2844	6054	inactive
43	lectin-21Ca	DRSC00541	83477	61273		2217	1636	inactive
44	dpr10 (defective proboscis extension response 10)	DRSC09015	99824	1.59e5		3239	8512	inactive
45	dpr10 (defective proboscis extension response 10)	DRSC09018	1.58e5	2.91e5		4357	13210	inactive
46	dpr10 (defective proboscis extension response 10)	DRSC10159	46013	86009	55380	7462	3205	inactive
47	dpr10 (defective proboscis extension response 10)	DRSC10160	63764	58374	66556	5813	3753	inactive
48	CG34273	DRSC13041	51897	1.00e5		11884	2739	inactive
49	Klp59D (Kinesin-like protein at 59D)	DRSC04118	1.23e5	74855		3175	5600	inactive
50	CG13110	DRSC02208	1.07e5	4.89e5	43043	3026	26773	inactive
51	CG1889 + CG43386	DRSC17979	95986	2.24e5		3168	9657	inactive
52	RIC-3 (RIC3 acetylcholine receptor chaperone)	DRSC04243	1.35e5	1.09e5		5479	4336	inactive
53	RIC-3 (RIC3 acetylcholine receptor chaperone)	DRSC04543	1.29e5	61130		3130	4517	inactive
54	Cp16 (Chorion protein 16)	DRSC11119	51751	48073		5408	3938	inactive
55	EloA (Elongin A)	DRSC16109	1.16e5	57625		4874	2360	inactive
56	sals (sarcomere length short)	DRSC14925	1.45e5	1.08e5		5312	4283	inactive
57	sals (sarcomere length short)	DRSC16113	72836	1.22e5		2438	3251	inactive
58	CG4042	DRSC11751	92074	92620		3524	2976	inactive
59	Dok (Downstream of kinase)	DRSC18204	57585	1.03e5		2251	3928	inactive
60	CG17249	DRSC08517	1.19e5	72404		4996	2964	inactive
61	ppk25 (pickpocket 25)	DRSC04973	98967	63328		2453	5493	inactive
62	CG10376	DRSC02049	59227	28776		2988	1476	inactive
63	CNT1 (Concentrative nucleoside transporter 1)	DRSC06082	79996	40260		1721	3882	inactive
64	CG12035	DRSC08238	1.26e5	59031		5335	2454	inactive
65	CG33543	DRSC00384	92592	96333		2050	2092	inactive
66	CG33543	DRSC00385	1.07e5	99356		2057	2416	inactive
67	CG1143	DRSC08188	52633	42439		1949	3869	inactive
68	CG5986	DRSC15931	86804	70960		4166	3143	inactive
69	CG9541	DRSC03257	1.08e5	47175		2728	4773	inactive
70	CG13494	DRSC04139	1.28e5	80624		3307	6844	inactive
71	Reck (Reversion-inducing-cysteine-rich protein with kazal motifs)	DRSC10504	1.16e5	76290		4541	3056	inactive
72	Reck (Reversion-inducing-cysteine-rich protein with kazal motifs)	DRSC10505	93811			1472	2562	inactive
73	CG3032	DRSC18266	91111	1.82e5		2932	6569	inactive
